PubChem BioAssay AID2685 (National Center for Advancing Translational Sciences (NCATS), 2010)
The list shows a part of the results. These are further read-outs of the screen, such as a control signal, another cell line or another target. No call is given for them. The list favours compounds with an active or inconclusive main result. The note in brackets gives the kind of curve behind each potency; many fits are weak.

Assay: qHTS Assay for Lipid Storage Modulators in Drosophila S3 Cells;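 as to cell number change: cells counted by Cell Tracker Red CMTPX staining in the red channel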
Settings: BODIPY lipid droplet fluorescence, 18-24 h; for cell number change: measured here: cell count max response, cells fed with added oleic acid
How it was run: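 Drosophila S3 cells got compounds at several concentrations plus oleic acid (400 uM solution). Laser-scanning cytometry with 488 nm excitation read lipid droplets at 500-530 nm and cells at 575-640 nm. Percent activity was relative to 20 uM Triacsin C.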

[1] = measured here: lipid fluorescence (Fed channel) AC50, cells fed with added oleic acid
[2] = measured here: cell number channel AC50, cells fed with added oleic acid

Row | SMILES | cell number change | AC50 [1] | AC50 [2]
1 | COC(=O)C1=C(C)C(c2ccc(OC)cc2OC)NC(=O)N1 (stereo not given) | 4.95% | 6.51 µM [rising, single point] | –
2 | O=C(c1cc(F)ccc1F)C1CCCN(Cc2cccn2-c2ccccn2)C1 (stereo not given) | 26.1% | 25.9 µM [rising, single point] | –
3 | CCOc1cc(C(=O)NN=C2CCCC2)cc(OCC)c1OCC | -4.46% | – | –
4 | O=C(Cn1nc(Cl)nc1Cl)c1ccc2c(c1)OCCO2 | -6.88% | – | –
5 | Cc1nc(C#N)c(N/N=C/c2c(F)cccc2Cl)o1 | -5.38% | 2.31 µM [falling, single point] | –
6 | CCCCC(=O)Nc1ccc(C(=O)N2CCCC(C(=O)OCC)C2)cc1 (stereo not given) | – | 6.51 µM [rising, single point] | –
7 | Cc1c(C(=O)N2CCOCC2)c(S(=O)(=O)Nc2ccc(OC(F)(F)F)cc2)c(C)n1C | -17.4% | 1.3 µM [falling, full curve] | –
8 | COc1cccc(CN(C)C(=O)CN2C(=O)NC3(CCCc4ccccc43)C2=O)c1 (stereo not given) | -31.1% | – | 29.1 µM [falling, single point]
9 | CN(Cc1c(C(=O)N/N=C/c2ccc(O)cc2)nnn1-c1nonc1N)C1CCCCC1 | 93.5% | – | 29.1 µM [rising, single point]
10 | COc1ccc2c(c1OC)C(=O)N(c1cccc(NC(C)=O)c1)C2 | 4.63% | 2.31 µM [rising, partial curve] | –
11 | Cc1ccnc(N/N=C/c2ccco2)n1 | -0.826% | 3.26 µM [rising, single point] | –
12 | Cc1nn(C)cc1CNC(=O)C1CCC(=O)N(CC2CCCCC2)C1 (stereo not given) | 13.7% | – | –
13 | CCOc1ccc(NS(=O)(=O)c2ccc(C(=O)NCCN3CCOCC3)cc2)cc1 | -13.6% | 0.82 µM [falling, full curve, poor fit] | –
14 | O=C(O)COc1cccc(NC(=O)c2ccccc2)c1 | 3.73% | 0.0146 µM [falling, full curve, poor fit] | –
15 | Cc1nn(-c2ccccc2)c(Cl)c1/C=N/NC(=O)c1ccc(CNc2ccccc2)o1 | -26.8% | 6.51 µM [rising, partial curve, poor fit] | 0.00517 µM [rising, full curve, poor fit]
16 | Cc1cc(Br)cc(C)c1OCC(=O)NNC(=O)c1cccs1 | -30.4% | 25.9 µM [falling, single point] | –
17 | CCC(C)CN1CCC(CO)(Cc2ccccc2Cl)CC1 (stereo not given) | -49% | – | 29.1 µM [falling, single point]
18 | CC1CN(Cc2nc3c(c(=O)[nH]c(=O)n3C)n2CC(N)=O)CC(C)O1 (stereo not given) | 20% | 1.64 µM [rising, partial curve, poor fit] | –
19 | O=C(CSc1nnc(NC(=O)c2ccco2)s1)NC1CCCCC1 | -18.8% | 2.59 µM [falling, partial curve] | –
20 | CS(=O)(=O)N1CCC(C(=O)Nc2ccc(Cl)cc2)CC1 | -17.5% | – | –

A few values from the list:
Value for `Cc1cc(Br)cc(C)c1OCC(=O)NNC(=O)c1cccs1` under AC50 [1]: 25.9 µM [falling, single point]
Value for `CC1CN(Cc2nc3c(c(=O)[nH]c(=O)n3C)n2CC(N)=O)CC(C)O1` (stereo not given) under AC50 [1]: 1.64 µM [rising, partial curve, poor fit]
Value for `COc1ccc2c(c1OC)C(=O)N(c1cccc(NC(C)=O)c1)C2` under AC50 [1]: 2.31 µM [rising, partial curve]

Carrying on.

Row | SMILES | cell number change | AC50 [1] | AC50 [2]
21 | COc1cccc(CNC(=O)CCC2CCCN(C(=O)c3ccccc3N(C)C)C2)c1 (stereo not given) | -5.28% | 29.1 µM [falling, single point] | –
22 | Cc1ccc(C(=O)CN(C(=O)c2ccc(Cl)cc2)N2C(=O)CCC2=O)cc1 | -27.6% | 0.13 µM [falling, full curve, poor fit] | 0.092 µM [falling, full curve]
23 | Cc1nnc(SCC(=O)NCC2CCCCC2)n(N)c1=O | 46.9% | 16.4 µM [rising, single point] | 6.51 µM [rising, full curve]
24 | NS(=O)(=O)c1cccc(NC(=O)c2cccnc2Oc2ccccc2)c1 | 16.9% | 1.03 µM [falling, partial curve, poor fit] | 6.51 µM [falling, single point]
25 | COC(=O)c1cc(C#N)c(N(C)Cc2ccccc2)nc1C | 14.2% | 18.4 µM [rising, partial curve] | 2.06 µM [rising, partial curve, poor fit]
26 | O=C(NC1CCS(=O)(=O)C1)N1CCCCC1 (stereo not given) | -13.7% | 29.1 µM [falling, single point] | 7.31 µM [falling, single point]
27 | Cc1nc2ccccc2c(=O)n1/N=C/c1c(O)ccc2ccccc12 | -22.3% | 1.46 µM [falling, partial curve] | 0.82 µM [falling, full curve, poor fit]
28 | Cc1noc(C)c1Cn1nc(C(=O)O)c2ccccc2c1=O | 0.84% | – | –
29 | CCCN(C(=O)COC(=O)CSc1ccc([N+](=O)[O-])cc1)C1CCS(=O)(=O)C1 (stereo not given) | -7.4% | 1.84 µM [rising, partial curve] | –
30 | COc1ccccc1/C=C/C(=O)NCC(=O)N/N=C(/C)c1ccco1 | 2.94% | – | –
31 | CCCNC(=O)C/C(C)=N/NC(=O)COc1ccc(C)cc1Br | 7.69% | – | –
32 | Cc1ccc(-n2c(C)nc3oc4ccccc4c(=O)c3c2=O)cc1 | -5.38% | – | –
33 | Cc1sc2ncn(CC(=O)N(CC(=O)NC3CCCC3)Cc3cccs3)c(=O)c2c1C | -38.7% | 29.1 µM [falling, single point] | 29.1 µM [falling, single point]
34 | CCCS(=O)(=O)N1CCCC(C(=O)NCCCN2CCN(c3ccccc3F)CC2)C1 (stereo not given) | 5.35% | 6.51 µM [rising, single point] | –
35 | O=C1/C(=C/c2cccc(F)c2)CSc2sccc21 | -19.7% | – | –
36 | COc1ccc(Nc2nc(-c3ccccc3)nc3ccccc23)cc1 | 17.1% | 13 µM [rising, partial curve] | –
37 | CCN(CC)c1ccc(/C=C(/C#N)c2nc3ccccc3[nH]2)c(OC(C)C)c1 | – | 0.651 µM [falling, full curve] | –
38 | N#Cc1c(SCc2c(Cl)cccc2Cl)nc(N)[nH]c1=S | -8.82% | 29.1 µM [falling, partial curve, poor fit] | –
39 | Cc1ccc(OCC(=O)NCCN2CCOCC2)cc1C | 34% | – | 20.6 µM [rising, single point]
40 | CCOP(=O)(OCC)/C(=N/OC(=O)c1ccc(OC)cc1)C(N)=O | -19.4% | 18.4 µM [falling, single point] | –

Row | SMILES | cell number change | AC50 [1] | AC50 [2]
41 | O=C(NC(=S)Nc1nc2c(s1)CCCC2)c1ccc(C(=O)c2ccccc2)cc1 | -17.7% | 1.84 µM [falling, partial curve, poor fit] | 0.82 µM [falling, full curve, poor fit]
42 | CCSc1nc2sc3c(c2c(=O)n1-c1ccccc1)CCN(C)C3 | -12.6% | – | –
43 | CCn1c(SCc2cccc(C)c2)nnc1-c1ccccc1 | -0.69% | 29.1 µM [falling, single point] | 6.51 µM [rising, single point]
44 | COc1ccc(CCN2CC(C(=O)NCCc3cnn(C)c3)CCC2=O)cc1 (stereo not given) | 4.89% | 20.6 µM [rising, single point] | –
45 | Cn1c(=O)[nH]c(=O)c2c1nc(NC1CCCCC1)n2CC(=O)NC1CCCCC1 | – | 0.517 µM [rising, full curve] | 0.461 µM [rising, full curve]
46 | O=C(Nc1ccccc1C(=O)Nc1ccccc1C(=O)O)c1ccccc1 | 20.1% | 0.58 µM [rising, full curve, poor fit] | –
47 | CCOC(=O)c1ccc(NC(=O)CSc2nc(SC)ns2)cc1 | -10.4% | – | –
48 | O=C(O)/C=C/C(=O)Nc1cccnc1 | -17.2% | 0.231 µM [falling, partial curve, poor fit] | –
49 | Cc1ccc(C(=O)N2CCCC(CCC(=O)N3CCN(c4ccccn4)CC3)C2)cc1 (stereo not given) | -34.6% | 6.51 µM [falling, single point] | 29.1 µM [falling, single point]
50 | CC1CCCCC1NS(=O)(=O)CCNC(=O)c1ccc2c(c1)OCO2 (stereo not given) | -50% | 29.1 µM [falling, single point] | 18.4 µM [falling, single point]
51 | COc1ccc(S(=O)(=O)Nc2cccc(-c3ccc4nncn4n3)c2)cc1F | -25.2% | 3.26 µM [falling, single point] | –
52 | CC(NCC(=O)NCCc1ccc(S(N)(=O)=O)cc1)c1ccc(F)cc1 (stereo not given) | 19.5% | 20.6 µM [rising, single point] | –
53 | COc1ccc(C(C)=O)cc1COc1ccc(Cl)cc1Cl | 20.4% | 29.1 µM [rising, single point] | –
54 | CCOC(=O)/C(C#N)=N/Nc1ccccc1C(=O)O | -5.47% | 32.6 µM [falling, single point] | –
55 | CC12CCC(=O)N1C(C(=O)N1CCN(c3cccc(Cl)c3)CC1)CS2 (stereo not given) | -46.8% | 1.3 µM [falling, partial curve] | 29.1 µM [falling, single point]
56 | Cc1ccccc1C(=O)N1CCC(C(=O)N(CC(C)C)c2c(N)n(CC(C)C)c(=O)[nH]c2=O)CC1 | -32% | – | 7.31 µM [falling, partial curve, poor fit]
57 | Cc1ccc(/C=C/C(=O)NCc2cccs2)c(C)c1 | 14.4% | 0.731 µM [rising, full curve, poor fit] | –
58 | O=C(COC(=O)CCN=C1NS(=O)(=O)c2ccccc21)NC1CCCCCCC1 | -47.3% | 23.1 µM [falling, single point] | 32.6 µM [falling, single point]
59 | C/C(=N\NC(=O)c1cc(C)[nH]n1)c1ccc(-c2ccccc2)cc1 | 15.7% | – | –
60 | Cc1ccc(N2CC(C(=O)Nc3ccc(C)c(S(=O)(=O)N(C)C)c3)CC2=O)cc1 (stereo not given) | -21.9% | 0.461 µM [falling, full curve, poor fit] | –
